Data taken from the supplement of paper PMC7661543.
Differences between knockout arms are mostly noise.

Tested on: BT-20
Experiment: relative cell number vs DMSO control (72 h) (% of DMSO); higher = less growth inhibition (more cells)
Description: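 QMAP-Seq: a pool of 5 breast cancer cell lines (ZR-75-1, SKBR3, HCC-38, MDA-MB-231, BT-20), each carrying 12 doxycycline-inducible Cas9 sgRNA perturbations (11 knockouts plus non-targeting sgNT), was treated with compounds for 72 h at four 10-fold doses (10 nM-10 uM or 1 nM-1 uM range). Barcodes were amplified and sequenced, and cell number was interpolated from 293T spike-in standard curves. The result is expressed as % of the median of DMSO wells. Two biological replicates.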

Cc1cn(-c2cc(NC(=O)c3ccc(C)c(Nc4nccc(-c5cccnc5)n4)c3)cc(C(F)(F)F)c2)cn1 [Nilotinib]
Settings	relative cell number
sgRNA knockout: sgATF3, 10 nM	90.9
sgRNA knockout: sgATF3, 100 nM	98.4
sgRNA knockout: sgATF3, 1000 nM	99.3
sgRNA knockout: sgATF3, 10000 nM	61.9
sgRNA knockout: sgATF4, 10 nM	97.6
sgRNA knockout: sgATF4, 100 nM	99.7
sgRNA knockout: sgATF4, 1000 nM	91.4
sgRNA knockout: sgATF4, 10000 nM	56.7
sgRNA knockout: sgATF6, 10 nM	90.3
sgRNA knockout: sgATF6, 100 nM	97.4
sgRNA knockout: sgATF6, 1000 nM	122.8
sgRNA knockout: sgATF6, 10000 nM	74.8
sgRNA knockout: sgATG7, 10 nM	99.5
sgRNA knockout: sgATG7, 100 nM	102
sgRNA knockout: sgATG7, 1000 nM	104
sgRNA knockout: sgATG7, 10000 nM	62
sgRNA knockout: sgERN1, 10 nM	87.5
sgRNA knockout: sgERN1, 100 nM	104
sgRNA knockout: sgERN1, 1000 nM	112
sgRNA knockout: sgERN1, 10000 nM	60.8
sgRNA knockout: sgHSF1, 10 nM	106
sgRNA knockout: sgHSF1, 100 nM	96.4
sgRNA knockout: sgHSF1, 1000 nM	100
sgRNA knockout: sgHSF1, 10000 nM	71.5
sgRNA knockout: sgHSF2, 10 nM	94.6
sgRNA knockout: sgHSF2, 100 nM	85.8
sgRNA knockout: sgHSF2, 1000 nM	95.9
sgRNA knockout: sgHSF2, 10000 nM	68.3
sgRNA knockout: sgKEAP1, 10 nM	92.9
sgRNA knockout: sgKEAP1, 100 nM	94.1
sgRNA knockout: sgKEAP1, 1000 nM	102
sgRNA knockout: sgKEAP1, 10000 nM	69.6
sgRNA knockout: sgNFE2L2, 10 nM	104
sgRNA knockout: sgNFE2L2, 100 nM	96.5
sgRNA knockout: sgNFE2L2, 1000 nM	107
sgRNA knockout: sgNFE2L2, 10000 nM	73.3
sgRNA knockout: sgSLC35F2, 10 nM	98.2
sgRNA knockout: sgSLC35F2, 100 nM	87.6
sgRNA knockout: sgSLC35F2, 1000 nM	99.8
sgRNA knockout: sgSLC35F2, 10000 nM	76.1
sgRNA knockout: sgXBP1, 10 nM	107
sgRNA knockout: sgXBP1, 100 nM	102
sgRNA knockout: sgXBP1, 1000 nM	101.8
sgRNA knockout: sgXBP1, 10000 nM	61.1

O=C(c1cc(Cc2n[nH]c(=O)c3ccccc23)ccc1F)N1CCN(C(=O)C2CC2)CC1 [Olaparib]
Settings	relative cell number
sgRNA knockout: sgATF3, 10 nM	89.7
sgRNA knockout: sgATF3, 100 nM	94.7
sgRNA knockout: sgATF3, 1000 nM	83.6
sgRNA knockout: sgATF3, 10000 nM	73.3
sgRNA knockout: sgATF4, 10 nM	89.2
sgRNA knockout: sgATF4, 100 nM	101
sgRNA knockout: sgATF4, 1000 nM	83.5
sgRNA knockout: sgATF4, 10000 nM	78
sgRNA knockout: sgATF6, 10 nM	91.16
sgRNA knockout: sgATF6, 100 nM	111
sgRNA knockout: sgATF6, 1000 nM	83.2
sgRNA knockout: sgATF6, 10000 nM	88
sgRNA knockout: sgATG7, 10 nM	86.96
sgRNA knockout: sgATG7, 100 nM	106
sgRNA knockout: sgATG7, 1000 nM	83
sgRNA knockout: sgATG7, 10000 nM	86.4
sgRNA knockout: sgERN1, 10 nM	94.8
sgRNA knockout: sgERN1, 100 nM	105
sgRNA knockout: sgERN1, 1000 nM	71.9
sgRNA knockout: sgERN1, 10000 nM	76.3
sgRNA knockout: sgHSF1, 10 nM	99.4
sgRNA knockout: sgHSF1, 100 nM	86.4
sgRNA knockout: sgHSF1, 1000 nM	85.92
sgRNA knockout: sgHSF1, 10000 nM	91.5
sgRNA knockout: sgHSF2, 10 nM	98.6
sgRNA knockout: sgHSF2, 100 nM	111
sgRNA knockout: sgHSF2, 1000 nM	86
sgRNA knockout: sgHSF2, 10000 nM	97
sgRNA knockout: sgKEAP1, 10 nM	87.8
sgRNA knockout: sgKEAP1, 100 nM	96.1
sgRNA knockout: sgKEAP1, 1000 nM	82.2
sgRNA knockout: sgKEAP1, 10000 nM	79.1
sgRNA knockout: sgNFE2L2, 10 nM	103
sgRNA knockout: sgNFE2L2, 100 nM	109
sgRNA knockout: sgNFE2L2, 1000 nM	98.7
sgRNA knockout: sgNFE2L2, 10000 nM	88.3
sgRNA knockout: sgSLC35F2, 10 nM	93.1
sgRNA knockout: sgSLC35F2, 100 nM	99.4
sgRNA knockout: sgSLC35F2, 1000 nM	76.5
sgRNA knockout: sgSLC35F2, 10000 nM	94.9
sgRNA knockout: sgXBP1, 10 nM	96.34
sgRNA knockout: sgXBP1, 100 nM	100
sgRNA knockout: sgXBP1, 1000 nM	91.3
sgRNA knockout: sgXBP1, 10000 nM	77.3

CCCS(=O)(=O)Nc1ccc(F)c(C(=O)c2c[nH]c3ncc(Cl)cc23)c1F [PLX4720]
Settings	relative cell number
sgRNA knockout: sgATF3, 10 nM	112
sgRNA knockout: sgATF3, 100 nM	85.2
sgRNA knockout: sgATF3, 1000 nM	97.6
sgRNA knockout: sgATF3, 10000 nM	102
sgRNA knockout: sgATF4, 10 nM	119
sgRNA knockout: sgATF4, 100 nM	102
sgRNA knockout: sgATF4, 1000 nM	104
sgRNA knockout: sgATF4, 10000 nM	100
sgRNA knockout: sgATF6, 10 nM	105
sgRNA knockout: sgATF6, 100 nM	96.5
sgRNA knockout: sgATF6, 1000 nM	91.8
sgRNA knockout: sgATF6, 10000 nM	101
sgRNA knockout: sgATG7, 10 nM	104
sgRNA knockout: sgATG7, 100 nM	95.3
sgRNA knockout: sgATG7, 1000 nM	112
sgRNA knockout: sgATG7, 10000 nM	120
sgRNA knockout: sgERN1, 10 nM	104
sgRNA knockout: sgERN1, 100 nM	98.3
sgRNA knockout: sgERN1, 1000 nM	106
sgRNA knockout: sgERN1, 10000 nM	105.4
sgRNA knockout: sgHSF1, 10 nM	100.5
sgRNA knockout: sgHSF1, 100 nM	101
sgRNA knockout: sgHSF1, 1000 nM	96.9
sgRNA knockout: sgHSF1, 10000 nM	112
sgRNA knockout: sgHSF2, 10 nM	113
sgRNA knockout: sgHSF2, 100 nM	74.3
sgRNA knockout: sgHSF2, 1000 nM	109
sgRNA knockout: sgHSF2, 10000 nM	94.3
sgRNA knockout: sgKEAP1, 10 nM	101
sgRNA knockout: sgKEAP1, 100 nM	91.3
sgRNA knockout: sgKEAP1, 1000 nM	96.9
sgRNA knockout: sgKEAP1, 10000 nM	109
sgRNA knockout: sgNFE2L2, 10 nM	99.5
sgRNA knockout: sgNFE2L2, 100 nM	72.6
sgRNA knockout: sgNFE2L2, 1000 nM	86.7
sgRNA knockout: sgNFE2L2, 10000 nM	106
sgRNA knockout: sgSLC35F2, 10 nM	105
sgRNA knockout: sgSLC35F2, 100 nM	89
sgRNA knockout: sgSLC35F2, 1000 nM	96.5
sgRNA knockout: sgSLC35F2, 10000 nM	109
sgRNA knockout: sgXBP1, 10 nM	103
sgRNA knockout: sgXBP1, 100 nM	98.7
sgRNA knockout: sgXBP1, 1000 nM	102
sgRNA knockout: sgXBP1, 10000 nM	106
